No constants are given. Whether binding was seen depends on the method and setting. For some assays here: In cells and extracts the contact can be indirect. Some entries that bind do so weakly or less than the wild type. For some assays here: Tags and fused reporters may be left off the sequences shown.
B1: DRD1-Flag (protein, not shown: small tags and cut ends)
chain: MGFVYIVMTGYYKNVHKRKQNQVDDGPEAKRVKSSAKVIDYSNPFAVSNMLEALDSGKFGSVSKELEEIADMRMDLVKRSIWLYPSLAYTVFEAEKTMDNQQVVEGVINLDDDDDDDTDVEKKALCVVPSSSEIVLLDSDDEDNERQRPMYQFQSTLVQHQKNQGDVTPLIPQCSFEEVDLGRGKEMPSAIKAIVEGQTSRGKVLPIENGVVNEKGVYVGVEEDDSDNESEAADEDLGNIWNEMALSIECSKDVARETSHKEKADVVEDCEHSFILKDDMGYVCRVCGVIEKSILEIIDVQFTKAKRNTRTYASETRTKRFGESDNELKFSEEGLMIGGLAAHPTHAAEMKPHQIEGFQFLCSNLVADDPGGCIMAHAPGSGKTFMIISFMQSFLAKYPQAKPLVVLPKGILPTWKKEFVRWQVEDIPLLDFYSAKAENRAQQLSILKQWMEKKSILFLGYQQFSTIVCDDTTDSLSCQEILLKVPSILILDEGHTPRNEDTNLLQSLAQVQTPRKVVLSGTLYQNHVKEVFNILNLVRPKFLKLDTSKSAVKRILAYTPCDVRGRLTGSNSDMASMFNETVEHTLQKSEDFTVKIKVIQDLREMTKKVLHYYKGDFLDELPGLADFTVVLNLSPKQLNEVKKLRREKRKFKVSAVGSAIYLHPKLKVFSDKSDDVSDTTMDEMVEKLDLNEGVKAKFFLNLINLCDSAGEKLLVFSQYLIPLKFLERLAALAKGWKLGKEVFVLTGNTSSEQREWSMETFNSSPDAKIFFGSIKACGEGISLVGASRILILDVPLNPSVTRQAIGRAFRPGQKKMVHAYRLIAGSSPEEEDHNTCFKKEVISKMWFEWNEYCGYQNFEVETIDVDEAGDTFLESPALREDIRVLYKR
B2: SHH1 SAWADEE domain (residues 125-258) (protein)
chain: ADLAFEAKSARDYAWYDVSSFLTYRVLRTGELEVRVRFSGFDNRHDEWVNVKTSVRERSIPVEPSECGRVNVGDLLLCFQEREDQALYCDGHVLNIKRGIHDHARCNCVFLVRYELDNTEESLGLERICRRPEE

Tests used:
[1] = biological target: T1, HA-SUVH2 (Arabidopsis thaliana) (UniProt O22781); assay: co-immunoprecipitation on Flag magnetic beads (figure legend)
T1 sequence: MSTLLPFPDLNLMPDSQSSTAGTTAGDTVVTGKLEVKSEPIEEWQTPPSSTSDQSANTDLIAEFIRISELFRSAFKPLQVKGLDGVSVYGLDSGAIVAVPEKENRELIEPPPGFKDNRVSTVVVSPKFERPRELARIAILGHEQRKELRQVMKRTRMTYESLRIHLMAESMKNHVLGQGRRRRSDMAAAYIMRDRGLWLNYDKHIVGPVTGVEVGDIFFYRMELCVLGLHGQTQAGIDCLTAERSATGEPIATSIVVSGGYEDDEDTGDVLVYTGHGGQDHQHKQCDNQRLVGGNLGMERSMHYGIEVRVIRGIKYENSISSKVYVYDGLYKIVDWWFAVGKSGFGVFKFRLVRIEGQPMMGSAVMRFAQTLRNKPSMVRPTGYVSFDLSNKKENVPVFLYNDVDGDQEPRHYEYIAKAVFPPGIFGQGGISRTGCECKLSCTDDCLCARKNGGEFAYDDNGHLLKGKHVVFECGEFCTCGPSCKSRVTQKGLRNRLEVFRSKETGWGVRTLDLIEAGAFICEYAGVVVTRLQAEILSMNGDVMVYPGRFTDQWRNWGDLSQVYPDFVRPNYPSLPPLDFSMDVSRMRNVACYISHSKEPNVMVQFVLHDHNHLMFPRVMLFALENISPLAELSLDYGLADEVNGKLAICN

[2] = biological target: T1, HA-SUVH2 (Arabidopsis thaliana); assay: co-immunoprecipitation on Flag magnetic beads from Arabidopsis flowers; HA and Flag blots
[3] = biological target: H3K9me2 peptide containing H3K4me1 modification (UniProt P59226); assay: ITC
[4] = biological target: H3K9me2 peptide containing H3K4me2 modification (UniProt P59226); assay: ITC
[5] = biological target: H3K9me2 peptide containing H3K4me3 modification (UniProt P59226); assay: ITC

Binder | binding [1] | binding [2] | binding [3] | binding [4] | binding [5]
B1 | binds | binds | – | – | –
B2 | – | – | binds | binds | binds
